Drawing on doi:10.1101/2023.04.28.538690, this text covers binding for 1 molecule.

These are yes or no findings as the source states them, for the method shown. Binding calls can cover weak binding; strength is not graded here. Where a sequence is shown, tags or fusion partners need not be part of it.

Test [1] addresses SEC N-terminal tetratricopeptide repeats (TPRs 1-13), yeast two-hybrid bait (BD) (Arabidopsis thaliana). As to the kind of experiment: two-hybrid.
Test [2] deals with SPY N-terminal tetratricopeptide repeats (TPRs 1-11), yeast two-hybrid bait (BD) (Arabidopsis thaliana). As to the kind of experiment: two-hybrid.

B1: SPATULA (SPT), full-length, yeast two-hybrid prey (AD) (protein, UniProt Q9FUA4 1-373)
chain: MISQREEREEKKQRVMGDKKLISSSSSSSVYDTRINHHLHHPPSSSDEISQFLRHIFDRSSPLPSYYSPATTTTTASLIGVHGSGDPHADNSRSLVSHHPPSDSVLMSKRVGDFSEVLIGGGSGSAAACFGFSGGGNNNNVQGNSSGTRVSSSSVGASGNETDEYDCESEEGGEAVVDEAPSSKSGPSSRSSSKRCRAAEVHNLSEKRRRSRINEKMKALQSLIPNSNKTDKASMLDEAIEYLKQLQLQVQMLTMRNGINLHPLCLPGTTLHPLQLSQIRPPEATNDPLLNHTNQFASTSNAPEMINTVASSYALEPSIRSHFGPFPLLTSPVEMSREGGLTHPRLNIGHSNANITGEQALFDGQPDLKDRIT
Turning to B1, the binding entry in test [1] and in test [2] was “binds” in each case.
